Results: patent publication US11672758B2, “Endoxifen methods and compositions for inhibition of protein kinase C” (Jina Pharmaceuticals, Inc., priority 2006, dated 2023)

Test system: PKC
Assay: PKC kinase activity assay kit (Assay Designs)
Format: biochemical
Conditions: PKC 10 ng/well
Procedure: A PKC kinase activity assay kit (Assay Designs, Ann Arbor, Mich.) was used to test endoxifen PKC inhibitory activity 0.025, 0.05, 0.1, or 0.2 mM endoxifen was used in a reaction mix containing PKC 10 ng/well. Tamoxifen in same concentration was used as a positive control. Endoxifen inhibited PKC activity in concentration dependent manner. The percentage PKC inhibition ranged between 12 and 80 with endoxifen concentration between 0.025 and 0.2 mM, respectively.

CC/C(=C(\c1ccccc1)c1ccc(OCCN(C)C)cc1)c1ccccc1 [tamoxifen]
percentage PKC inhibition (0.025 mM): negligible PKC inhibition
percentage PKC inhibition (0.05 mM): negligible PKC inhibition
percentage PKC inhibition (0.1 mM): 35%
percentage PKC inhibition (0.2 mM): 25%
